PubChem BioAssay AID504774, Drosophila RNAi Screening Center, 2011

Screen: 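Fly genes whose loss alters survival after alkylation damage to DNA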 (primary screen)
Cell system: Drosophila Kc167 cells
Reagent: long dsRNA against Drosophila genes, about 0.25 µg dsRNA per well
Duration: about 6 days: 3 days knock-down, then 3 days with or without MMS
Conditions: methyl methanesulphonate 0.004% (w/v) for 3 days after knock-down
Measured: 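Viability in wells given MMS, read as ATP luminescence, normalised by quantiles plate by plate and averaged across replicates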
Reading the numbers: mean viability with MMS: higher = more surviving cells after MMS
The deposit covers about 23,000 reagents; shown is a random part of those with a known target gene and a result. 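Values are quantile-normalised luminescence on an arbitrary scale; higher means more cells surviving MMS.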 The numbers tell different reagents against one gene apart. Names joined by + are all predicted targets of the reagent. Further read-outs or replicates are left out here.

| gene | reagent | mean viability with MMS |
| --- | --- | --- |
| p38b | 1 | 3.68e6 |
| Lsp1alpha | 1 | 3.53e6 |
| eas | 1 | 3.31e6 |
| DCTN2-p50 | 1 | 3.47e6 |
| PGRP-LE | 1 | 3.54e6 |
| twe | 1 | 3.51e6 |
| l(2)09851 | 1 | 3.64e6 |
| CG33290 | 1 | 3.54e6 |
| CG14826 | 1 | 3.44e6 |
| Nlg2 | 1 | 3.58e6 |
| CG40439 | 1 | 3.59e6 |
| dpr14 | 1 | 3.65e6 |
| CrebB | 1 | 3.50e6 |
| Cchl | 1 | 3.58e6 |
| Ak1 | 1 | 3.43e6 |
| chp | 1 | 3.42e6 |
| CG12496 | 1 | 3.34e6 |
| CG17996 + Tsen2 | 1 | 3.44e6 |
| Polr1C | 1 | 3.18e6 |
| FarO | 1 | 3.66e6 |
| CG10584 | 1 | 3.61e6 |
| Polr1E | 1 | 3.53e6 |
| Polr1E | 2 | 3.68e6 |
| Nepl18 | 1 | 3.59e6 |
| Yp3 | 1 | 3.43e6 |
| aru | 1 | 3.62e6 |
| aru | 2 | 3.66e6 |
| Gr36c | 1 | 3.49e6 |
| CG11672 | 1 | 3.48e6 |
| Nplp4 | 1 | 3.45e6 |
| GABA-B-R1 | 1 | 3.63e6 |
| trn | 1 | 3.50e6 |
| Agpat1 | 1 | 3.66e6 |
| Agpat1 | 2 | 3.57e6 |
| tio | 1 | 3.50e6 |
| CG7423 | 1 | 3.48e6 |
| Rcd-1r + CG13102 | 1 | 3.65e6 |
| Shaw | 1 | 3.52e6 |
| Shaw | 2 | 3.61e6 |
| Shaw | 3 | 3.62e6 |
| CG11906 | 1 | 3.63e6 |
| CG7903 | 1 | 3.53e6 |
| CG7102 | 1 | 3.79e6 |
| CG7102 | 2 | 3.49e6 |
| CG13048 | 1 | 3.56e6 |
| CG14518 | 1 | 3.55e6 |
| Grp170 | 1 | 3.69e6 |
| CG12481 | 1 | 3.65e6 |
| CG34038 | 1 | 3.62e6 |
| Dus1 | 1 | 3.40e6 |
| CG31055 | 1 | 3.63e6 |
| CG3792 | 1 | 3.63e6 |
| CG4553 | 1 | 3.27e6 |
| PI31 | 1 | 3.36e6 |
| LysD + LysC (retired record) | 1 | 3.78e6 |
| LysD + LysC (retired record) | 2 | 3.69e6 |
| ArgRS-m | 1 | 3.53e6 |
| CG6497 | 1 | 3.43e6 |
| CG6497 | 2 | 3.53e6 |
| thw | 1 | 3.54e6 |
| CG15739 | 1 | 3.66e6 |
| tup | 1 | 3.53e6 |
| CG6878 | 1 | 3.53e6 |
| CG34253 | 1 | 3.49e6 |
| tsh | 1 | 3.70e6 |
| Or83a | 1 | 3.54e6 |
| CG17343 | 1 | 3.78e6 |
| CG17343 | 2 | 3.41e6 |

Quoted from above, 9 entries:
| gene | reagent | mean viability with MMS |
| --- | --- | --- |
| aru | 2 | 3.66e6 |
| Gr36c | 1 | 3.49e6 |
| CG11672 | 1 | 3.48e6 |
| Nplp4 | 1 | 3.45e6 |
| GABA-B-R1 | 1 | 3.63e6 |
| trn | 1 | 3.50e6 |
| Agpat1 | 1 | 3.66e6 |
| Agpat1 | 2 | 3.57e6 |
| tio | 1 | 3.50e6 |
